For part of these data: A negative result means that nothing was seen under these conditions. For part of these data: At least one verdict was read from the data and is not stated in words by the source. Weaker means in comparison with the reference protein, sequence or condition of that experiment. For part of these data: Protein sequences can lack the tags named with them. For part of these data: Construct, isoform or probe ends are uncertain for at least one entry.
Experiments:
[1] = biological target: DrLIN41 filamin-NHL (Danio rerio) (UniProt E7FAM5); experiment: fluorescence polarization; conditions: stated very similar to CeLIN41; FP: 20 mM HEPES, 200 mM NaCl, 0.05% Tween20, 100 nM Cy5-RNA, 30 min room temp; recombinant protein; residues 435-824; protein details: N-terminal His, 3C cleavable (not removed); label: 5'-Cy5
[2] = biological target: T1, CeLIN41 filamin-NHL (Caenorhabditis elegans) (UniProt Q9U489); experiment: fluorescence polarization; conditions: FP: 20 mM HEPES, 200 mM NaCl, 0.05% Tween20, 100 nM Cy5-RNA, 30 min room temp, recombinant protein, residues 691-1147, protein details: N-terminal Strep tag, TEV site, label: 5'-Cy5
T1 sequence (looked up): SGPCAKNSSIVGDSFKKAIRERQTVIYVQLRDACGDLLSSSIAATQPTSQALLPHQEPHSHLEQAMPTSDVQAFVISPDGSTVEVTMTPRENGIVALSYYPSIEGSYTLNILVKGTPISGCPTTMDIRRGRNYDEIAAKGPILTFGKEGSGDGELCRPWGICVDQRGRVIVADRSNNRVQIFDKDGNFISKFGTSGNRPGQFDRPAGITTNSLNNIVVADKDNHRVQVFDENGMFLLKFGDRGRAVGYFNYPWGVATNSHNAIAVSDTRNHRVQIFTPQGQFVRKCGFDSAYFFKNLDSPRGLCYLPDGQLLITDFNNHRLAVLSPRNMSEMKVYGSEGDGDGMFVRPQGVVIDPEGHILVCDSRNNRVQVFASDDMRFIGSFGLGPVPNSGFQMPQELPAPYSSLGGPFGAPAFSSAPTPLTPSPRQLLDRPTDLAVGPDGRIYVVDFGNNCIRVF

Protein sequences, listed by entry. Tags and fused reporters are not part of them. Residues count along the entry.
UniProt E7FAM5, 435-824: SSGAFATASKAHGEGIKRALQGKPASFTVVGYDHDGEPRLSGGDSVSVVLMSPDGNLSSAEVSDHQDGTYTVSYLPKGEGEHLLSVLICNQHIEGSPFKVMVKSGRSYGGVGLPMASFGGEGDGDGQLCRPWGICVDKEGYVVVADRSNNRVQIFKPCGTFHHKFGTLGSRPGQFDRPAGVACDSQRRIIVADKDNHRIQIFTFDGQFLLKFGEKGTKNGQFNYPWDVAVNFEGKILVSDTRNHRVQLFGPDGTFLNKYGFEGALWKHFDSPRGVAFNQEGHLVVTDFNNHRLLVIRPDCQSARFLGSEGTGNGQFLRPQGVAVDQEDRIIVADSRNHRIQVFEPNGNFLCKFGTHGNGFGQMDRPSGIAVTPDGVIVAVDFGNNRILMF

[3] = biological target: T1, CeLIN41 filamin-NHL (Caenorhabditis elegans); experiment: EMSA; conditions: EMSA: 1x of 2x buffer (20 mM Hepes pH 8, 100 mM KCl, 200 mM NaCl, 0.2 mM EDTA, 20 mM DTT, 2 mM MgCl2, 2 mM CaCl2, 0.2 mM ZnSO4, 60% glycerol, heparin, E. coli tRNA), recombinant protein, residues 691-1147, protein details: N-terminal Strep tag, TEV site, label: 32P (radioactive) body label

Sequence	binding result [1]	binding result [2]	also measured
GCUGACCAACUCC [Ctrl (5-nt loop)]	no binding		
GGAGACCAUCUCC [L1.4 (Mut4) stem -1/+1 U-A->A-U]	binds more weakly	binds more weakly	
GGAGCCCAGCUCC [L1.5 (Mut5) stem -1/+1 U-A->C-G]	binds more weakly	binds more weakly	
GGAGGCCACCUCC [L1.6 (Mut6) stem -1/+1 U-A->G-C]	binds more weakly		binding result ([2]; most severe effect of stem mutants): binds more weakly
GGAGUCCCACUCC [L1.2 (Mut2) loop III A->C]	binds more weakly	binds more weakly	
GGAGUCCGACUCC [L1.3 (Mut3) loop III A->G]	binds more weakly		binding result ([2]; least effect of loop III mutants): binds more weakly
GGAGUCCUACUCC [L1.1 (Mut1) loop III A->U]	binds more weakly	binds more weakly	
GUUCCGAACCAAUUCGCCUAGCGAACCUUGGACUCCAACUCCGUUUUUACUCUUUUCUGAAAAGAGCCUACUAAAUAUUGGAACUAUAAUCAAACUAUUCCAUCAAAUCGACACACCUACUAGAUAUCAAAUAUCUAAUACUGGAACCAAGGCUUGGGUAACCUGAAACUGUGCGAAUUUGGAGCAGAAAUAUU [lin-29A mut2]			binding result ([3]; smaller complexes): binds more weakly
GUUCCGAACCAAUUCGCCUAGCGAACCUUGGACUCCAACUCCGUUUUUACUGUUUUCUGAAAAGAGCCUACUAAAUAUUGGAACUAUAAUCAAACUAUUGGAUCAAAUCGACACACCUACUACAUAUCAAAUAUCUAAUACUGGAACCAAGGCUUGGGUAACCUGAAACUGUGCGAAUUUGGAGCAGAAAUAUU [lin-29A mut1]			binding result [3]: binds more weakly

Source: PMC5908797, “Evolutionary plasticity of the NHL domain underlies distinct solutions to RNA recognition”
